From PubChem BioAssay AID330 (DTP/NCI, 2004) come the findings set out here.

The test concerns P388 leukemia ip, CD2F1 mice, survival T/C. As to the kind of experiment: NCI In Vivo Anticancer Drug Screen. Data for tumor model P388 Leukemia (intraperitoneal) in CD2F1 (CDF1) mice. As to conditions: T/C endpoint: median survival time, higher T/C = longer survival.
The mark [1] stands for this setting: dose: 100.0 mg/kg/injection, schedule: Q01DX005 (ip), vehicle: saline with Tween-80.
[2] abbreviates: dose: 200.0 mg/kg/injection, schedule: Q01DX005 (ip), vehicle: saline with Tween-80.
Setting [3] is: dose: 50.0 mg/kg/injection, schedule: Q01DX009 (ip), vehicle: saline.
Where [4] appears, read: dose: 200.0 mg/kg/injection, schedule: Q01DX009 (ip), vehicle: saline.
Where [5] appears, read: dose: 200.0 mg/kg/injection, schedule: Q01DX009 (ip), vehicle: Klucel (hydroxypropylcellulose) (HPC).
The mark [6] stands for this setting: dose: 240.0 mg/kg/injection, schedule: Q01DX005 (ip), vehicle: saline with Tween-80.
[7] abbreviates: dose: 15.0 mg/kg/injection, schedule: Q01DX005 (ip), vehicle: saline with Tween-80.
The mark [8] stands for this setting: dose: 30.0 mg/kg/injection, schedule: Q01DX005 (ip), vehicle: saline with Tween-80.
The mark [9] stands for this setting: dose: 60.0 mg/kg/injection, schedule: Q01DX005 (ip), vehicle: saline with Tween-80.
Where [10] appears, read: dose: 120.0 mg/kg/injection, schedule: Q01DX005 (ip), vehicle: saline with Tween-80.
[11] abbreviates: dose: 5.0 mg/kg/injection, schedule: Q01DX009 (ip), vehicle: Klucel (hydroxypropylcellulose) (HPC).
Setting [12] is: dose: 40.0 mg/kg/injection, schedule: Q01DX009 (ip), vehicle: Klucel (hydroxypropylcellulose) (HPC).

The list shows only some results of the screen, not a fair sample: it gathers tests that were run many times, whatever their T/C, doses with no T/C, and many T/C values between a quarter and a half above the control. Other doses and runs of a compound stand elsewhere. T/C: endpoint of the treated group in % of that of the vehicle group. Some doses have a count of surviving animals in place of a T/C: the source files T/C as zero there, which appears to mark a toxic dose or a test without result, not a measured value. Some doses without a T/C left all or most animals alive at the check, yet need not have been tolerated: the source hardly ever lists a survival T/C far under the control, and the zero likely stands for such cases as well. Counts of survivors are from the toxicity check (mostly the fifth day) where no day follows; animals may have died later. Schedule codes are those of the source, taken here to give the interval after Q, in days (D) or hours (H), and the number of doses after X. Some entries hold several experiments; the results are listed from low to high. For survival time, this PubChem deposit counts one and a half times the control or more as active, and values a quarter to a half above the control carry no call in these data; other NCI protocols may use other cut-offs. Some T/C values carry the count of animals alive at the toxicity check (mostly the fifth day); where none is given, no animal had died by that day.

In the case of `O=C1CN(c2cccc(C(F)(F)F)c2)C(=O)CN1/N=C/c1ccco1`, the survivor count is given as 6 of 6 under setting [1] and 6 of 6 under setting [2].
Consider `BrCc1cccnc1`, for which the survivor count is listed as 0 of 5 (dose: 100.0 mg/kg/injection, schedule: Q01DX005 (ip), vehicle: saline) and 0 of 5 (dose: 200.0 mg/kg/injection, schedule: Q01DX005 (ip), vehicle: saline).
For `CC(=O)SC1C(=O)N(C)C(SC(C)=O)C(=O)N1C` (configuration not stated), the survivor count by setting is: (dose: 25.0 mg/kg/injection, schedule: Q01DX009 (ip), vehicle: saline) 4 of 6; under setting [3], 5 of 6; (dose: 100.0 mg/kg/injection, schedule: Q01DX009 (ip), vehicle: saline) 2 of 6; under setting [4], 0 of 6.
In the case of `CN=C(N)N/N=C(\C)c1ccc2sc3ccc(/C(C)=N/NC(N)=NC)cc3c2c1`, the T/C (dose: 25.0 mg/kg/injection, schedule: Q04DX002 (ip), vehicle: saline with Tween-80) is 144 % of control; the T/C (dose: 50.0 mg/kg/injection, schedule: Q04DX002 (ip), vehicle: saline with Tween-80) was 144 % of control; the T/C (dose: 100.0 mg/kg/injection, schedule: Q04DX002 (ip), vehicle: saline with Tween-80) is 135 % of control [4 of 6 alive].
For the molecule `COc1cc(/C=N/NP(=S)(Oc2ccc(C(C)(C)C)cc2)Oc2ccc(C(C)(C)C)cc2)cc(OC)c1O`, under setting [5], the survivor count was 6 of 6.
On to `CC1=Nc2nc(=N)nc3cccc(n23)N1`, for which the survivor count under setting [6] is listed as 1 of 6.
In the case of `CCCCCCCCCCCCCCCCON`, under setting [5], the survivor count is 1 of 6.
Turning to `CCOC(=O)N/N=C/c1ccc[nH]1`, the survivor count is, setting by setting: under setting [7], 6 of 6; under setting [8], 0 of 6; under setting [9], 0 of 6; under setting [10], 0 of 6; under setting [6], 0 of 6.
As to `COc1cc(Br)c(C(=O)N(C)c2ccccc2)cc1OC`, the survivor count is, setting by setting: (dose: 100.0 mg/kg/injection, schedule: Q01DX009 (ip), vehicle: other) 3 of 6; (dose: 200.0 mg/kg/injection, schedule: Q01DX009 (ip), vehicle: other) 0 of 6; (dose: 400.0 mg/kg/injection, schedule: Q01DX009 (ip), vehicle: other) 0 of 6.
As for `O=C(/C=C/c1ccc(OCc2ccccc2)cc1)c1ccc(C(F)(F)F)cc1`, the survivor count (dose: 100.0 mg/kg/injection, schedule: Q01DX009 (ip), vehicle: saline with Tween-80) is reported as 6 of 6.
In the case of `CN(N=O)c1ccc(/C=C/c2ccnc3ccccc23)cc1`, the survivor count (dose: 300.0 mg/kg/injection, schedule: Q01DX009 (ip), vehicle: saline with Tween-80) is 6 of 6.
`CC(C)NC(=O)OCc1c(COC(=O)NC(C)C)c(-c2ccc(F)cc2F)n2c1CCC2`: the T/C by setting is: (dose: 0.78 mg/kg/injection, schedule: Q01DX009 (ip), vehicle: distilled water + Tween-80) 135 % of control; (dose: 1.56 mg/kg/injection, schedule: Q01DX009 (ip), vehicle: distilled water + Tween-80) 142 % of control; (dose: 25.0 mg/kg/injection, schedule: Q01DX009 (ip), vehicle: distilled water + Tween-80) 129 % of control. The survivor count by setting is: (dose: 50.0 mg/kg/injection, schedule: Q01DX009 (ip), vehicle: distilled water + Tween-80) 4 of 6 and 6 of 6; (dose: 100.0 mg/kg/injection, schedule: Q01DX009 (ip), vehicle: distilled water + Tween-80) 0 of 6; (dose: 200.0 mg/kg/injection, schedule: Q01DX009 (ip), vehicle: distilled water + Tween-80) 0 of 6.
Regarding `COc1cc2c(c(OC)c1OC)-c1ccc(SC)c(=O)cc1C(N(C)C(=O)C(F)(F)F)CC2` (configuration not stated), the T/C by setting is: under setting [11], 126 and 139 % of control; (dose: 10.0 mg/kg/injection, schedule: Q01DX009 (ip), vehicle: Klucel (hydroxypropylcellulose) (HPC)) 135 and 145 % of control. Besides, under setting [12], the survivor count was 4 of 6.
Regarding `O=C(c1cccs1)C1NO[N+]([O-])=C1c1cccs1` (configuration not stated), the survivor count was 3 of 6 (dose: 50.0 mg/kg/injection, schedule: Q01DX005 (ip), vehicle: saline with Tween-80); 0 of 6 under setting [1]; 0 of 6 under setting [2].
`COc1c2c(cc3c1OCO3)[C@]13C=C[C@H](OC)C[C@H]1N(C2)CC3O` (some centres not stated): the survivor count is given as 1 of 6 (dose: 2.5 mg/kg/injection, schedule: Q01DX009 (ip), vehicle: saline with Tween-80); 3 of 6 (dose: 5.0 mg/kg/injection, schedule: Q01DX001 (ip), vehicle: saline); 1 of 6 (dose: 10.0 mg/kg/injection, schedule: Q01DX001 (ip), vehicle: saline with Tween-80); 0 of 6 (dose: 20.0 mg/kg/injection, schedule: Q01DX001 (ip), vehicle: saline with Tween-80); 0 of 6 (dose: 100.0 mg/kg/injection, schedule: Q01DX001 (ip), vehicle: saline with Tween-80); 0 of 6 (dose: 200.0 mg/kg/injection, schedule: Q01DX001 (ip), vehicle: saline with Tween-80). Where the note is “dose: 400.0 mg/kg/injection, schedule: Q01DX001 (ip), vehicle: saline with Tween-80”, the survivor count is 0 of 6.
As to `COc1ccc2c(C)cc(N/N=C(\C)c3cn(C)n(-c4ccccc4)c3=O)nc2c1`, for the setting “dose: 200.0 mg/kg/injection, schedule: Q01DX005 (ip), vehicle: Klucel (hydroxypropylcellulose) (HPC)”, the survivor count was 0 of 6.
As for `CCCCCCCCCC(=O)Oc1cccc2c1CC(C[Se]c1ccccc1)C(=O)O2` (configuration not stated), the survivor count reads like this: under setting [7], 6 of 6; under setting [8], 6 of 6; under setting [9], 6 of 6; under setting [10], 6 of 6; under setting [6], 6 of 6.
For the molecule `CCOC1OCN(C)CC1(C)C` (configuration not stated), the T/C runs as follows: under setting [3], 140 % of control; under setting [4], 140 % of control.
As to `COC(=O)Nc1cn2cc(C(=O)c3cccs3)ccc2n1`, the T/C reads like this: (dose: 50.0 mg/kg/injection, schedule: Q01DX009 (ip), vehicle: Klucel (hydroxypropylcellulose) (HPC)) 126 % of control; (dose: 100.0 mg/kg/injection, schedule: Q01DX009 (ip), vehicle: Klucel (hydroxypropylcellulose) (HPC)) 133 and 147 % of control [5 of 6 alive]; under setting [5], 132 % of control. Moreover, under “dose: 400.0 mg/kg/injection, schedule: Q01DX009 (ip), vehicle: Klucel (hydroxypropylcellulose) (HPC)”, the survivor count is on record as 0 of 6.
Take `CN(C)c1ccc(/C=C/c2ccnc3ccccc23)cc1Cl`: the survivor count is, setting by setting: (dose: 50.0 mg/kg/injection, schedule: Q04DX003 (ip), vehicle: saline with Tween-80) 6 of 6; (dose: 100.0 mg/kg/injection, schedule: Q04DX003 (ip), vehicle: saline with Tween-80) 3 of 6; (dose: 200.0 mg/kg/injection, schedule: Q04DX003 (ip), vehicle: saline with Tween-80) 0 of 6; (dose: 400.0 mg/kg/injection, schedule: Q04DX003 (ip), vehicle: saline with Tween-80) 0 of 6.
`CC(=O)OCCOCNC(=S)N/N=C/c1ccccn1`: the T/C under setting [10] was 131 % of control. Moreover, under setting [6], the survivor count is listed as 5 of 6.
As to `O=C1c2ccccc2C(=O)C(Cl)C1Cl` (configuration not stated), the survivor count (dose: 6.25 mg/kg/injection, schedule: Q01DX009 (ip), vehicle: saline with Tween-80) is listed as 3 of 6 and the survivor count (dose: 12.5 mg/kg/injection, schedule: Q01DX009 (ip), vehicle: saline with Tween-80) is 0 of 6.
As to `O=C1Nc2ccccc2/C1=N/N=C/c1ccccc1O`, under setting [5], the survivor count was 3 of 6.
In the case of `CCCCCCCCCCCCCCCCCCSC1=CC(=O)C(Cl)=C(Cl)C1=O`, the survivor count by setting is: (dose: 2.5 mg/kg/injection, schedule: Q01DX009 (ip), vehicle: Klucel (hydroxypropylcellulose) (HPC)) 6 of 6; under setting [11], 6 of 6; under setting [12], 6 of 6.
